Assay: Identification and label-free relative LC-MS quantitation of HLA-presented peptides on tumor and normal tissue samples (XPRESIDENT presentation profiles)
Set-up: species or system human
Conditions: for Additional entities of particular interest (presentation of selected peptides across entities): tumor entities on which the HLA-presented peptide was found, entity abbreviations defined in the title of Table 4B; for Entities of particular interest: entities where the peptide was over-presented on cancer samples compared to normal tissues
[1] = FIG. 1E-J and 7A-C, analyses of more than 320 normal tissue samples and 462 cancer samples
[2] = FIG. 1A-D, analyses of more than 170 normal tissue samples and 376 cancer samples

Row | Substance | Additional entities of particular interest (presentation of selected peptides across entities) | Entities of particular interest | other results
1 | 275 (AVPPPPSSV; listed as Homo sapiens) [compound 275] | NSCLC, HCC | – | –
2 | SEQ ID NO.: 235: peptide found in CLSPN (gene looked up) (SLLNQPKAV; listed as Homo sapiens) | – | – | cancer tissues where the peptide was found to be presented [1]: 30
3 | 214 (ALFETLIQL; listed as Homo sapiens) [compound 214] | HCC | – | –
4 | 103 (YLADTVQKL; listed as Homo sapiens) [compound 103] | NSCLC | – | –
5 | 145 (ALEEKLENV; listed as Homo sapiens) [compound 145] | NSCLC | – | –
6 | 68 (QLMNLIRSV; listed as Homo sapiens) [compound 68] | UBC, AML | HCC, PC | –
7 | 113 (FLFLKEVKV; listed as Homo sapiens) [compound 113] | CRC | – | –
8 | 29 (KMISAIPTL; listed as Homo sapiens) [compound 29] | UTC | NSCLC, OC | –
9 | 266 (FLLDKPQDL; listed as Homo sapiens) [compound 266] | – | RCC, OC | –
10 | 223 (ALHPVQFYL; listed as Homo sapiens) [compound 223] | OC, CRC | – | –
11 | 205 (LAFGYDDEL; listed as Homo sapiens) [compound 205] | HCC | – | –
12 | 190 (SLSTELFKV; listed as Homo sapiens) [compound 190] | HCC | – | –
13 | SEQ ID NO.: 243 (GLAEFQENV; listed as Homo sapiens) | – | – | cancer tissues where the peptide was found to be presented [1]: 67
14 | 228 (SLLELDGINLRL; listed as Homo sapiens) [compound 228] | NSCLC | – | –
15 | 213 (ILAVDGVLSV; listed as Homo sapiens) [compound 213] | NSCLC, BRCA, MEL | – | –
16 | 212 (MTLSEIHAV; listed as Homo sapiens) [compound 212] | CRC | – | –
17 | 204 (SEWGSPHAAVP; listed as Homo sapiens) [compound 204] | PPC | – | –
18 | 181 (LLWAPTAQA; listed as Homo sapiens) [compound 181] | GB, NSCLC, RCC, CRC | – | –
19 | 4 (VLFGELPAL; listed as Homo sapiens) [compound 4] | SCLC, UBC, UTC | GB, NSCLC, BRCA, RCC, PC, OC, PC | –
20 | 40 (KIWEELSVLEV; listed as Homo sapiens) [compound 40] | SCLC, UBC | GC, NSCLC, HCC, MEL | –
21 | 44 (AVFNLVHVV; listed as Homo sapiens) [compound 44] | – | GC, NSCLC, PC | –

Row | Substance | Additional entities of particular interest (presentation of selected peptides across entities) | Entities of particular interest | other results
22 | 19 (KVFELDLVTL; listed as Homo sapiens) [compound 19] | AML, NHL | GC, NSCLC, CRC, OSCAR | –
23 | 73 (SVPKTLGV; listed as Homo sapiens) [compound 73] | – | GB, RCC | –
24 | 203 (FLFVDPELV; listed as Homo sapiens) [compound 203] | CRC, AML, NHL | NSCLC, GC, OC | –
25 | 87 (KLLSLLEEA; listed as Homo sapiens) [compound 87] | NSCLC, BPH | – | –
26 | 129 (KMASKVTQV; listed as Homo sapiens) [compound 129] | HCC | – | –
27 | SEQ ID NO.: 67 (FLIENLLAA; listed as Homo sapiens) | – | – | cancer tissues where the peptide was found to be presented [1]: 7
28 | 25 (LLWGHPRVALA; listed as Homo sapiens) [compound 25] | – | CRC, PC, NSCLC | –
29 | 99 (TLFGIQLTEA; listed as Homo sapiens) [compound 99] | GC, GBC_CCC | – | –
30 | 51 (LDSEALLTL; listed as Homo sapiens) [compound 51] | BRCA | GB, NSCLC, HCC | –
31 | SEQ ID NO.: 1: peptide found in CENPE (gene looked up) (KLQEKIQEL; listed as Homo sapiens) | – | – | cancer tissue samples where the peptide was found to be presented [2]: 31; normal tissue samples where the peptide was found to be presented [2]: 2
32 | 95 (KLIDEDEPLFL; listed as Homo sapiens) [compound 95] | SCLC, UTC, GBC_CCC | NSCLC, OC | –
33 | 92 (RLFEEVLGV; listed as Homo sapiens) [compound 92] | OSCAR, SCLC, UBC, BRCA, AML | NSCLC, HCC, OC, OC | –
34 | 56 (VLQENSSDYQSNL; listed as Homo sapiens) [compound 56] | UTC | NSCLC, HCC | –
35 | 168 (VIFEGEPMYL; listed as Homo sapiens) [compound 168] | NSCLC, BRCA, NHL | – | –
36 | 258 (QLVQRVASV; listed as Homo sapiens) [compound 258] | UBC, NHL | NSCLC, OC | –
37 | 77 (ALYGNVQQV; listed as Homo sapiens) [compound 77] | BRCA, NHL | NSCLC, OC | –
38 | 257 (KLIDHQGLYL; listed as Homo sapiens) [compound 257] | – | NSCLC, OC, CRC, OSCAR | –
39 | 251 (LLWGNLPEI; listed as Homo sapiens) [compound 251] | CLL, SCLC, UTC, GBC_CCC, AML, NHL | NSCLC, MEL, CRC, PC, OC | –
40 | SEQ ID NO.: 2 (SVLEKEIYSI; listed as Homo sapiens) | – | – | cancer tissues where the peptide was found to be presented [1]: 52; normal tissues where the peptide was found to be presented [1]: 2
41 | 136 (LLWDAPAKC; listed as Homo sapiens) [compound 136] | CRC | – | –
42 | 171 (LLLLDVPTA; listed as Homo sapiens) [compound 171] | NSCLC, UTC, BRCA, CRC, NHL | – | –

Row | Substance | Additional entities of particular interest (presentation of selected peptides across entities) | Entities of particular interest | other results
43 | SEQ ID NO.: 43: peptide found in CCR8 (gene looked up) (LLIPFTIFM; listed as Homo sapiens) | – | – | cancer tissues where the peptide was found to be presented [1]: 16
44 | 192 (TLLPSSGLVTL; listed as Homo sapiens) [compound 192] | BRCA | – | –
45 | 55 (HLFDKIIKI; listed as Homo sapiens) [compound 55] | – | GC, CRC | –
46 | 34 (TLNTLDINL; listed as Homo sapiens) [compound 34] | UTC | OC, PC | –
47 | 153 (KLVELEHTL; listed as Homo sapiens) [compound 153] | GC, NSCLC, OSCAR | – | –
48 | SEQ ID NO.: 40 (KIWEELSVLEV; listed as Homo sapiens) | – | – | cancer tissues where the peptide was found to be presented [1]: 8
49 | 57 (TLYPGRFDYV; listed as Homo sapiens) [compound 57] | OSCAR, UBC | NSCLC, PC | –
50 | 49 (KLIGNIHGNEV; listed as Homo sapiens) [compound 49] | – | GB, NSCLC, OC | –
51 | 3 (RVIDDSLVVGV; listed as Homo sapiens) [compound 3] | UBC | NSCLC, HCC, OC, MEL, CRC, PC, OSCAR | –
52 | 50 (ILLSVLHQL; listed as Homo sapiens) [compound 50] | – | NSCLC, CRC | –
53 | 119 (SLIEESEEL; listed as Homo sapiens) [compound 119] | OC, UTC | – | –
54 | 133 (FLDGRPLTL; listed as Homo sapiens) [compound 133] | UTC, MEL | – | –
55 | 5 (GLVDIMVHL; listed as Homo sapiens) [compound 5] | SCLC, UBC, BRCA, MEL, PC | NSCLC, RCC, OC | –
56 | 187 (SILKEDPFL; listed as Homo sapiens) [compound 187] | NSCLC | – | –
57 | 22 (LMYPYIYHV; listed as Homo sapiens) [compound 22] | HCC, CLL, SCLC, UBC, BRCA, GBC_CCC, MEL, CRC, NHL | GB, NSCLC, OC, OSCAR | –
58 | 30 (IITEVITRL; listed as Homo sapiens) [compound 30] | OC, UTC | – | –
59 | 177 (ALINVLNAL; listed as Homo sapiens) [compound 177] | AML | – | –
60 | 188 (VLGEEQEGV; listed as Homo sapiens) [compound 188] | NSCLC | – | –
61 | SEQ ID NO.: 84 (FLLEREQLL; listed as Homo sapiens) | – | – | cancer tissues where the peptide was found to be presented [1]: 24
